Results taken from patent US6348309B1, “Process for inactivating viruses in blood and blood products” (priority 1989, dated 2002).

Assay: Batch removal of MB from fresh plasma by adsorbing agents: extinction and protein (Example 14)
Settings: fresh plasma + MB 10 μM, no adsorbing agent

For `CN(C)c1ccc2nc3ccc(=[N+](C)C)cc-3sc2c1` [MB, methylene blue], the “E (660 nm)” value was 1.450 and the Protein was 65.6 mg/mL.
